According to patent publication US5994311A, “Cell adhesion peptides for modifying the adhesion capacity of eukaryotic cells between each other” (Beiersdorf AG, priority 1994, dated 1999):
Part of at least one peptide drawing is inferred or uncertain, most often the ends. Peptide text beside a SMILES is read from it.

Columns and labels:
HDF cells = test: Cell adherence test with HDF cells; type: cell-based, human; settings: peptide/BSA conjugates bound to polystyrene, approx. 35 nmol peptide per well, 1 hour at 37° C., fibronectin positive control, BSA negative control
Protocol: (§1) 50 μl each of the peptide/BSA conjugates or the peptides were placed, in different concentrations, in the wells of a 96-well flat-bottomed microtiter plate (DYNATECH). After drying for 2 hours at 37° C., unbound peptide/BSA conjugate or peptide is removed by washing with phosphate-buffered saline solution (PBS) several times. In order to prevent the non-specific adhesion of the cells to polystyrene, all the wells were subsequently saturated for 30 min. at 37° C. with heat-denatured BSA (2 mg/ml). Following that, it was once again washed with PBS.
As a positive control for the adhesion capacity, bovine fibronectin (Paesel & Lorey, 1 mg/ml) was used, and heat-denatured BSA (2 mg/ml) as a negative control; this is not capable of influencing intercellular adhesion.
The cell adherence test was performed with AKR-2B mouse fibroblasts (Shipley et al., Cancer Res. 44 (1984) 710-716) and human dermal fibroblasts (HDF, removed from the lower arm, 18th passage). AKR-2B cells were cultivated in McCoy's medium (10% calf serum), and HDF cells in Dulbecco's modified eagle medium (DMEM) in the presence of 10% foetal calf serum (FCS) and 1% streptomycin/penicillin. […] The adhered cells were fixed for 0.5 min with methanol and stained with the MERCK HEMACOLOR™ (colution for fast staining in microscopy) reagent kit in order to quantify the number of cells.

AKR-2B cells [1] = test: Cell adherence test, dilution series on AKR-2B cells (EC50); type: cell-based, mouse
Protocol: as §1
The cell adherence test was performed with AKR-2B mouse fibroblasts (Shipley et al., Cancer Res. 44 (1984) 710-716) and human dermal fibroblasts (HDF, removed from the lower arm, 18th passage). […] The adhered cells were fixed for 0.5 min with methanol and stained with the MERCK HEMACOLOR™ (colution for fast staining in microscopy) reagent kit in order to quantify the number of cells.
For some selected conjugates, dilution series were included in order to determine binding constants for AKR-2B cells. […] After the readings had been plotted graphically, the difference between the figure for the maximum cell adherence and the zero value could be formed, and the EC50 values shown in Tab. 3 as a measure of the semi-maximum cell adherence could be read off from the line of the curve. […]

AKR-2B cells [2] = test: Competitive inhibition test (adherence of AKR-2B cells to BSA/AP#2 conjugate); type: cell-based, mouse; settings: for Inhibition (maximum measured reduction in cell adherence): soluble peptide 1 μmol/well, AKR-2B cells, plates coated with BSA/AP#2 conjugate 10 nmol/well; for inhibitory effect on the attachment of AKR-2B cells (in words): soluble peptides, competition with BSA/AP#2 conjugate
Protocol: Via the specific saturation of surface receptors (shown schematically in FIG. 3E), it is possible, in the case of soluble peptides, to measure an inhibitory effect on the adhesion of test cells (AKR-2B). In the experiment described here, a selected peptide/BSA conjugate corresponding to a peptide concentration of 10 nmol/well was placed in the microtiter plates and incubated for 2 hours at 37° C. Unsaturated binding sites in the culture vessel were subsequently saturated for 30 minutes with heat-denatured BSA (2 mg/ml). The peptides were dissolved in HYBRI-MAX™ (medium for culture of hybridoma cell types containing 1 mM Mn^2+ and 0.02% heat-denatured BSA) Medium (0.02 % BSA, 1 mM Mn^2+), and the pH was adjusted to a level of 7.2 to 7.4. Following that, the peptide solutions were treated with Reductacryl®. […] From these stock solutions, dilution series were prepared in HYBRI-MAX™ (medium for culture of hybridoma cell types containing 1 mM Mn^2+ and 0.02% heat-denatured BSA) medium (1 mM Mn^2+, 0.02% heat-denatured BSA), and added to the AKR-2B cells taken up in the same medium. After that, the specimens were incubated for 10 minutes at 37° C., while being gently shaken. The cells pre-treated in this way (1.5×10^5 /200 μl) were subsequently transferred to the conjugate-coated microtiter plates. The further treatment of the test plates was performed by analogy with 4.1.
The inhibitory effect of the peptides is shown in Tab. 4 as the difference between the 100% figure (control, with no peptide in the medium), and the maximum measured reduction in cell adherence at a peptide concentration of 1 μmol/well. A figure of 100% would mean complete inhibition, i.e. the maximum effect.
For the peptides of the invention available in soluble form, i.e. in a form not bound to carrier molecules, it is possible to detect adhesion inhibiting properties which come about as a result of the specific blockade of epitopes on surface receptors of the test cells (cf. FIG. 3E).
The AP#2 peptide was selected as an internal standard. Compared to most of the other peptides of the invention (cf. Tab. 2), the adhesion promoting properties of BSA/AP#2 conjugates lie within a region of semi-maximum effectiveness. Experience has shown that, in order to detect inhibitory effects, it is favourable to measure in a range of less than optimum effect, since otherwise weak inhibitory effects might not be detected.

`CC[C@H](C)[C@H](NC(=O)CN)C(=O)N[C@H](C(=O)N[C@@H](CCCNC(=N)N)C(=O)N[C@H](C(=O)N1CCC[C@H]1C(=O)N[C@@H](CC(C)C)C(=O)N[C@@H](C)C(=O)N[C@@H](CCC(=O)O)C(=O)N[C@@H](CC(C)C)C(=O)N[C@@H](CC(C)C)C(=O)N[C@@H](CC(=O)O)C(=O)NCC(=O)N[C@@H](CS)C(=O)O)[C@@H](C)O)C(C)C` [AP#6, G-I-V-R-T-P-L-A-E-L-L-D-G-(C)] (H-GIVRTPLAELLDGC-OH) was tested, and the “CELL ADHESION [%]” value (HDF cells) was 69.0%, the “EC50 (semi-maximum cell adherence)” value (AKR-2B cells [1]; peptide/BSA conjugates diluted in PBS, read off from curve) was 21.5 pmol/well and the “adhesion promoting effect lower than control peptide IVA1, factor” value (AKR-2B cells [1]; peptide/carrier conjugates) was ≥ 30. The Inhibition (maximum measured reduction in cell adherence) (AKR-2B cells [2]) was 53% and the “inhibitory effect on the attachment of AKR-2B cells (in words)” value (AKR-2B cells [2]) was “Similarly powerful effects”.

With `CC(C)C[C@H](NC(=O)[C@H](CCC(=O)O)NC(=O)[C@H](C)NC(=O)[C@@H](N)CC(C)C)C(=O)N[C@@H](CC(C)C)C(=O)N[C@@H](CC(=O)O)C(=O)NCC(=O)N[C@@H](CCC(=O)O)C(=O)NCC(=O)N[C@@H](CCC(N)=O)C(=O)N[C@H](C(=O)N[C@@H](C)C(=O)N[C@@H](CC(=O)O)C(=O)N[C@@H](CS)C(=O)O)[C@@H](C)O` [AP#17, L-A-E-L-L-D-G-E-G-Q-T-A-D-(C)] (H-LAELLDGEGQTADC-OH) the “CELL ADHESION [%]” value (HDF cells) was 13.1%, the Inhibition (maximum measured reduction in cell adherence) (AKR-2B cells [2]) was 5.4% and the “inhibitory effect on the attachment of AKR-2B cells (in words)” value (AKR-2B cells [2]) was “virtually no effect”.
